Assay [1] deals with T1, FLAG-tagged human HDAC7 (human) (UniProt Q8WUI4).
T1 sequence (looked up): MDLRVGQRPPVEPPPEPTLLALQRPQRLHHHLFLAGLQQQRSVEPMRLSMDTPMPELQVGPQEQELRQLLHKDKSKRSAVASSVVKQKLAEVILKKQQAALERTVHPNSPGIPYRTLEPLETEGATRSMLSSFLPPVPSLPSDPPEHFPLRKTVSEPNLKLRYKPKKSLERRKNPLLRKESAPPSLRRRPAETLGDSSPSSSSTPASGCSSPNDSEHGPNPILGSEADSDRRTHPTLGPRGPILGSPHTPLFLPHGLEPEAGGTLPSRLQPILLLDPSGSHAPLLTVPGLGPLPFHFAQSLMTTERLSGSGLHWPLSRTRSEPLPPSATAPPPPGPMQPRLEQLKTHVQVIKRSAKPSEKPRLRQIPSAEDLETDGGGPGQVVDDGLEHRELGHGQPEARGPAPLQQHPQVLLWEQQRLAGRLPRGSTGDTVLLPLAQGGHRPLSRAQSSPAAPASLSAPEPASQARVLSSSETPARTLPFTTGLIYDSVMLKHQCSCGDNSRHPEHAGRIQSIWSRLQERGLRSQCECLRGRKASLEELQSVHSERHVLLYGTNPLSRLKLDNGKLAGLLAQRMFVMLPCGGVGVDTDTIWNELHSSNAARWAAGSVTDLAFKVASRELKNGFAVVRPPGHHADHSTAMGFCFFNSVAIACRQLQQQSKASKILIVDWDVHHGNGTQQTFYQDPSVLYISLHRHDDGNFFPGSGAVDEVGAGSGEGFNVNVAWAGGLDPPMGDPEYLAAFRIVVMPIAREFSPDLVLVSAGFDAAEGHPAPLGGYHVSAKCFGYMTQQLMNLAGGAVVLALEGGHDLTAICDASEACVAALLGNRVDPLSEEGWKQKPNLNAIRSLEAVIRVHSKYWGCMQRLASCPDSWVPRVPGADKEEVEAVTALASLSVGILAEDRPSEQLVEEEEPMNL
Description: anti-FLAG M2 immunoprecipitation from DO11.10-HDAC7-Flag cells, Coomassie gel, mass spectrometry.

Assay [2] has as its target T1, FLAG-tagged human HDAC7 (human). Description: anti-FLAG immunoprecipitation from DO11.10-HDAC7-Flag cells, SDS-PAGE, mass spectrometry.
For assay [3] the target is unchanged. The assay can be described thus: immunoprecipitation and mass spectrometry.

These are yes or no findings as the source states them, for the method shown. In cells and extracts the contact can be indirect. These calls come from enrichment with a bait or labelling near it, and not all partners need be listed. Where a sequence is shown, tags or fusion partners need not be part of it.

B1: 14-3-3 protein beta/alpha (protein, UniProt Q9CQV8 1-246, looked up)
chain: MTMDKSELVQKAKLAEQAERYDDMAAAMKAVTEQGHELSNEERNLLSVAYKNVVGARRSSWRVISSIEQKTERNEKKQQMGKEYREKIEAELQDICNDVLELLDKYLILNATQAESKVFYLKMKGDYFRYLSEVASGENKQTTVSNSQQAYQEAFEISKKEMQPTHPIRLGLALNFSVFYYEILNSPEKACSLAKTAFDEAIAELDTLNEESYKDSTLIMQLLRDNLTLWTSENQGDEGDAGEGEN
Regarding B1, the binding result in assay [1] and in assay [2] was “binds” each time.

B2: Protein phosphatase 1 regulatory subunit 12A (Myosin phosphatase targeting subunit 1) (protein, mouse, UniProt Q9DBR7 1-1029, looked up)
chain: MKMADAKQKRNEQLKRWIGSETDLEPPVVKRQKTKVKFDDGAVFLAACSSGDTDEVLKLLHRGADINYANVDGLTALHQACIDDNVDMVKFLVENGANINQPDNEGWIPLHAAASCGYLDIAEFLIGQGAHVGAVNSEGDTPLDIAEEEAMEELLQNEVNRQGVDIEAARKEEERVMLRDARQWLNSGHISDVRHAKSGGTALHVAAAKGYTEVLKLLIQAGYDVNIKDYDGWTPLHAAAHWGKEEACRILVDNLCDMETVNKVGQTAFDVADEDILGYLEELQKKQTLLHSEKRDKKSPLIESTANMENNQPQKAFKNKETLIIEPEKNASRIESLEHEKADEEEEGKKDESSCSSEEDEEDDSESEAETDKTKPMASVSNAHTSSTQAAPAAVTAPTLSSNQGTPTSPVKKFPISTTKISPKEEERKDESPASWRLGLRKTGSYGALAEISASKEAQKEKDTAGVMRSASSPRLSSSLDNKEKEKDNKGTRLAYVTPTIPRRLASTSDIEEKENRESSSLRTSSSYTRRKWEDDLKKNSSINEGSTYHRSCSFGRRQDDLISCSVPSTTSTPTVTSAAGLQRSLPSSTSTAAKTPPGSSSAGTQSSTSNRLWAEDSTEKEKDSAPTAVTIPVAPTVVNAAAPSTTTLTTTTAGTVSEVRERRRSYLTPVRDEESESQRKARSRQARQSRRSTQGVTLTDLQEAEKTIGRSRSTRTREQENEEKEKEEKEKQDKEKQEEKKESEASREDEYKQKYSRTYDETYTRYRPVSTSSSSAPSSSSLSTLGSTLYASSQLNRPNSLVGITSAYSRGLAKENEREGEKKEEEKEGEDKSQPKSIRERRRPREKRRSTGVSFWTQDSDENEQERQSDTEDGSSKRETQTDSVSRYDSSSTSSSDRYDSLLGRSASYSYLEDRKPYSSRLEKDDSTDFKKLYEQILAENEKLKAQLHDTNMELTDLKLQLEKATQRQERFADRSQLEMEKRERRALERRISEMEEELKMLPDLKADNQRLKDENGALIRVISKLSK
For the molecule B2, the binding result in assay [1], in assay [2] and in assay [3] was “binds” in each case.

B3: 14-3-3 protein theta (protein, UniProt P68254 1-245, looked up)
chain: MEKTELIQKAKLAEQAERYDDMATCMKAVTEQGAELSNEERNLLSVAYKNVVGGRRSAWRVISSIEQKTDTSDKKLQLIKDYREKVESELRSICTTVLELLDKYLIANATNPESKVFYLKMKGDYFRYLAEVACGDDRKQTIENSQGAYQEAFDISKKEMQPTHPIRLGLALNFSVFYYEILNNPELACTLAKTAFDEAIAELDTLNEDSYKDSTLIMQLLRDNLTLWTSDSAGEECDAAEGAEN
For B3, the binding entry in assay [1] and in assay [2] was “binds” throughout.

These data come from US20150024955A1, “Methods of Identifying Modulators of Dephosphorylation of Histone Deacetylase” (THE J. DAVID GLADSTONE INSTITUTES, priority 2006, published 2015).
